Library screen at single concentrations

Sequences of proteins named here, by UniProt entry; tags and fusion partners are left off. Residues count along the entry.
UniProt P9WFT3, whole entry: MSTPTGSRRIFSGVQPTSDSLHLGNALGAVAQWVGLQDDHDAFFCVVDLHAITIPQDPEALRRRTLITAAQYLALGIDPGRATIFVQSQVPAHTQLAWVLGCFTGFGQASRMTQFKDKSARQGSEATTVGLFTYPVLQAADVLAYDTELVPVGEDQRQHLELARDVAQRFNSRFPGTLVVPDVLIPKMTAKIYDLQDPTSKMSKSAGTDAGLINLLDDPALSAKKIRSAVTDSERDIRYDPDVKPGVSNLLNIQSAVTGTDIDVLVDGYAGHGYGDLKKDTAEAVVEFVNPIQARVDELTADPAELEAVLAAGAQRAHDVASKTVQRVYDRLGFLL
UniProt P9WPC5, whole entry: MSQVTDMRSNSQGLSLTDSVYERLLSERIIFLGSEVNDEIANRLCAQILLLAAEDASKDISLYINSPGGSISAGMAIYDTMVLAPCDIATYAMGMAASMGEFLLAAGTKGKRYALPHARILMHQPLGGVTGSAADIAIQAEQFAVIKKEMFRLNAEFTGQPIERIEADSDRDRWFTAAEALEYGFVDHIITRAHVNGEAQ
UniProt P9WPC3, whole entry partner: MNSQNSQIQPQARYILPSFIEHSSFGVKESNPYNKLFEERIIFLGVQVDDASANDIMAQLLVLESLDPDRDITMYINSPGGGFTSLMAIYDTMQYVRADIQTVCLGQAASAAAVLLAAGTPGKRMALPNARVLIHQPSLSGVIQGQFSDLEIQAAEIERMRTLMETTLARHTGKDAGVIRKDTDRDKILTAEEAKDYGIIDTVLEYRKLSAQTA
UniProt Q4DA54, 1-478: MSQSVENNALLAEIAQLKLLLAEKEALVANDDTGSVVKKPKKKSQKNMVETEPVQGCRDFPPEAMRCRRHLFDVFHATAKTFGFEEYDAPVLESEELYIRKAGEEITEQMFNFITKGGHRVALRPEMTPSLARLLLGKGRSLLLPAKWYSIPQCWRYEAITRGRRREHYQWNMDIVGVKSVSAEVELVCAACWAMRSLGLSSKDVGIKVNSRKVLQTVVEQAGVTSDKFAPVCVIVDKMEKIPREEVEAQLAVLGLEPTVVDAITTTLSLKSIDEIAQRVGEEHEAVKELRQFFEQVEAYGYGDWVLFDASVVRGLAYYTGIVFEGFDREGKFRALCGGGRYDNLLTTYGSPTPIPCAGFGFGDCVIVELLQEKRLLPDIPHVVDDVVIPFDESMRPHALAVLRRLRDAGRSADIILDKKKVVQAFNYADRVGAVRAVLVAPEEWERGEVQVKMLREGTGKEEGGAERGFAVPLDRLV

Measurements from “University of Dundee, Small-Polar-MMV Screening Library” (2021), ChEMBL document CHEMBL3988442.

A: 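Enzyme assay of tryptophanyl-tRNA synthetase; the read-out is not stated. Target: Tryptophan-tRNA ligase, Mycobacterium tuberculosis (UniProt P9WFT3). Concentration: 10 µM. Higher most likely means stronger inhibition; the record gives no direction and few retests gave an IC50. About 65,000 compounds were tested under these conditions; 0.098% (about 64) showed 50% or more at least once.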
B: 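ClpP1P2, Mycobacterium tuberculosis (UniProt P9WPC5 and UniProt P9WPC3). Protease assay of ClpP1P2, read by the AMC dye that it sets free. Tested at 50 µM. Direction is inferred from only a few compounds that gave an IC50; most scored high, so higher reads as stronger inhibition. Most other retested compounds had strongly negative values. Size under these conditions: about 69,000 compounds, about 10 of them at 50% or above in at least one test.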
C: 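Enzyme assay of histidyl-tRNA synthetase; the read-out is not stated. Target: Histidine-tRNA ligase, Trypanosoma cruzi CL Brener (UniProt Q4DA54). Compounds at 30 µM. Higher reads as stronger inhibition (inferred: compounds with an IC50 in retests scored well above the rest). Of about 69,000 compounds tested this way, about 31 (0.045%) reached 50% or more in at least one test.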

Results are given as percent effect. The controls that fix the scale are not given in the record; negative values are as filed. The compounds are a random part of those screened. A dash means the value is not listed here; it may have been measured.

Compound	A	B	C
COc1cccc(-c2cnnc(N(C)CCC3CCCCO3)n2)c1 (centres undefined)	-3.359%	-1.567%	6.122%
CN(C(=O)NCCCN1CCCC1)C1CCN(c2ccccc2)C1=O (centres undefined)	1.415%	21.38%	2.662%
Cc1nc(CN(C)C(=O)CNC(=O)c2ccc(C#N)cc2)cs1	1.718%	1.973%	8.929%
COCCN(Cc1sccc1C)c1nc(C)nc2sccc12	-3.144%	-7.503%	2.174%
CC(C)c1nccn1C(C)C(=O)N1CCN(c2ccccc2Cl)CC1 (centres undefined)	5.828%	-0.378%	13.86%
Cc1cc2c(=O)n3c(nc2s1)CCN(Cc1cnc(C)n1C)CC3	-	-10.91%	-1.064%
O=C(CCc1nnc(-c2ccccc2)o1)N1CCN(CC2CC2)CC1	-5.97%	-28.8%	3.458%
CNC(=O)c1nc2c(s1)CCN(C(=O)c1cccc(OC)c1)CC2	0.6509%	-16.55%	5.882%
CCn1cc(Cl)c(C(=O)NCCOC)n1	0.6477%	-16%	3.478%
CNc1ncccc1C(=O)N1CCN(C)C2(CCN(C)CC2)C1	1.715%	4.741%	5.732%
c1cc(C2CC2)n2cnc(C3CN(Cc4ccncc4)CCO3)c2c1 (centres undefined)	-0.9709%	-2.308%	8.861%
CC1CCN(c2ncc3c(n2)CN(Cc2cccc(F)c2)C3=O)CC1	-0.07179%	-12.94%	-1.754%
O=C(C1CCCC1)N1CCC(c2ncc3c(n2)CCNC3)C1 (centres undefined)	-	-5.908%	8.24%
COc1cccc(COc2nc(C(C)C)no2)c1	-1.471%	9.003%	1.754%
O=C1CC(c2ccsc2)c2snc(C(=O)O)c2N1 (centres undefined)	-1.044%	-6.024%	1.98%
COCC1COCCC12CCN(C(=O)COc1ccccc1)CC2 (centres undefined)	0.000006%	-11.52%	7.317%
CC(C)(N)C(=O)N1CCC(c2nccnc2Oc2cccc(F)c2)CC1	-	-7.564%	1.099%
Cc1ccc(CN2C[C@H]3C[C@H](C(=O)Nc4cccnc4)[C@@H](C2)O3)cc1	-0.6255%	5.367%	11.76%
CCn1ccnc1CN1CCC(=O)N(CC2CC2)C(C(C)C)C1 (centres undefined)	7.725%	9.705%	-1.02%
Cc1ncsc1-c1nnc(C2CCN(Cc3ccc(Cl)cc3)CC2)o1	-	-3.211%	7.692%
O=C(c1ccnnc1)N1C[C@@H]2COC[C@]2(COCC2CC2)C1	-1.146%	3.116%	4.202%
CN(Cc1ccco1)C(=O)C1CSCN1C(=O)C1CCC1 (centres undefined)	1.595%	-6.343%	3.429%
CCC(C)(C)C(=O)Nc1ccc2ccn(CC(=O)NC)c2c1	-1.001%	-11.76%	3.125%
COCc1nc(C(=O)N2CCN(Cc3cc(C)on3)CC2)cs1	4.705%	-4.088%	15.29%
COC[C@H]1CC[C@H]2[C@H](CCN2S(=O)(=O)Cc2ccccc2)O1	2.525%	-3.087%	2.299%
COCC(=O)N[C@H](C(=O)NC(C)c1cc(C)ccc1C)C(C)C (some centres undefined)	-2.22%	-1.35%	2.174%
O=C(Cc1ccsc1)N1CCC2(CCCN(CC3CCOCC3)C2)C1 (centres undefined)	-0.9346%	-15.21%	9.783%
CCn1ccnc1C1CCN(C(=O)C(O)c2ccc(Cl)cc2)CC1 (centres undefined)	-2.677%	-6.211%	-1.01%
CCc1ncc(CN2CCCN(CC3CC3)C(C(C)C)C2)cn1 (centres undefined)	0.8489%	2.979%	-1.299%
CCC(O)(CNCc1cc[nH]n1)c1ccc(Br)cc1 (centres undefined)	-3.028%	2.042%	8.247%
CCOc1cc(C)nc(N2CCN(C(=O)c3cn[nH]c3CC)CC2)n1	-8.367%	-11.53%	8%
Cc1ccc(S(=O)(=O)c2ncccc2CN2CCN(CCO)CC2)cc1	0.07003%	8.425%	-0.5848%
Cn1cc(C(=O)Nc2ccnc(Oc3ccccc3)c2)ccc1=O	1.883%	13.58%	4.762%
COCc1noc(-c2ccc(N3CCC[C@H]3CO)nc2)n1	-22.84%	-5.419%	3.061%
CC(C)C1CN(S(=O)(=O)N2CCCC2)CCCN1Cc1ccc(F)cc1 (centres undefined)	-0.8227%	-3.643%	5.419%
CCc1nnc(CN(C)C(=O)C2CC(=O)N(C3CC3)C2)o1 (centres undefined)	3.865%	-11.35%	0.8%
CCN(CCC(=O)OC)C(=O)c1cccc(Cn2nc(C)cc2C)c1	-1.814%	-13.18%	1.463%
COCCC1(C(=O)O)CCCN(Cc2cc3c(cc2Cl)OCO3)C1 (centres undefined)	2.621%	-3.523%	-0.5525%
CC(C)NC(=O)c1ccc2c(c1)C(c1nc[nH]n1)CN2C (centres undefined)	-9.273%	7.196%	3.226%
O=C(c1ccoc1)N1CCn2cnc(COCC3CC3)c2C1	-3.26%	-4.139%	7.143%
CSc1nccn1-c1ccc(C(=O)NCC2CC2)cc1	-8.437%	-97.95%	2.312%
CC/C=C(/C)C(=O)N1CSCC1C(=O)NC1=NCCS1 (centres undefined)	-3.901%	2.523%	4.762%
Cn1nccc1C(=O)NCCN1CCC(O)(c2ccc(F)cc2)CC1	0.7916%	1.009%	9.091%
Cc1cc(=O)n2ncnc2n1CC(O)COCc1ccccc1Cl (centres undefined)	-4.364%	-0.1648%	0.9804%
CCC(C)CS(=O)(=O)NC(=O)C1CCC1 (centres undefined)	13.02%	-1.391%	3.185%
CC(C)CNC(=O)CNc1c(NCc2ccco2)c(=O)c1=O	-5.017%	-4.407%	2.484%
Cn1cc(CN2CCCCC2c2ccc(-c3cccc(F)c3)nc2)cn1 (centres undefined)	1.621%	-60.25%	5.747%
Cc1cc(CN2CCC3(CC2)C(=O)NCCN3CC2CC2)oc1C	-0.8403%	5.658%	7.563%

5 of the entries, repeated:

Compound,A,B,C
O=C1CC(c2ccsc2)c2snc(C(=O)O)c2N1 (centres undefined),-1.044%,-6.024%,1.98%
CCn1ccnc1C1CCN(C(=O)C(O)c2ccc(Cl)cc2)CC1 (centres undefined),-2.677%,-6.211%,-1.01%
CCC(C)CS(=O)(=O)NC(=O)C1CCC1 (centres undefined),13.02%,-1.391%,3.185%
CC(C)(N)C(=O)N1CCC(c2nccnc2Oc2cccc(F)c2)CC1,-,-7.564%,1.099%
CNC(=O)c1nc2c(s1)CCN(C(=O)c1cccc(OC)c1)CC2,0.6509%,-16.55%,5.882%